From the M2OR odorant receptor database
The other results are listed elsewhere or left out. Calls are pooled over several reports, among them a noisy single-well screen.

Legend:
Details in all cases: stereoisomer not certain
[1] = system: T1, O13C5
T1 sequence (whole entry): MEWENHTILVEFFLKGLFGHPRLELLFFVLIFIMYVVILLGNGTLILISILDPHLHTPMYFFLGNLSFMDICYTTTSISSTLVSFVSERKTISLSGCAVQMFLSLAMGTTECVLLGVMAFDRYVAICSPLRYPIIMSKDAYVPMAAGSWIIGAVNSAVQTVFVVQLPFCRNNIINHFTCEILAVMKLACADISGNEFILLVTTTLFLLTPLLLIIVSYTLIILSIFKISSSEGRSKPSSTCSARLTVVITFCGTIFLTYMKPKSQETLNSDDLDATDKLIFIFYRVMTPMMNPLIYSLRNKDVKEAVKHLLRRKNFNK
Procedure, shortened: (§1)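 Each entry records the cell line, G-protein, co-transfected protein and tags used. Methods varied with the source, often transient luciferase assays in mammalian cell lines. A receptor–molecule pair is called responsive (active) if the original authors judged its signal statistically different from baseline and non-responsive (inactive) otherwise.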

[2] = system: T2, O13C7
T2 sequence (whole entry): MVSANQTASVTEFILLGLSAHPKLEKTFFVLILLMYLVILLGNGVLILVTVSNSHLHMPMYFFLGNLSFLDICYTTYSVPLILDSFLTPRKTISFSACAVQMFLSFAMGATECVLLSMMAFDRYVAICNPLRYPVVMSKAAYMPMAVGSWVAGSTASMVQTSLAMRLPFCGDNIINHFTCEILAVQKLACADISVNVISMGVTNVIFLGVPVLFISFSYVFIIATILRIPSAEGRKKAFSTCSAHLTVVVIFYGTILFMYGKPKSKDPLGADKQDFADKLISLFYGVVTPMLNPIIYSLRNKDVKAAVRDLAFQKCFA
Procedure, shortened: as §1

[3] = system: T3, O13C9
T3 sequence (whole entry): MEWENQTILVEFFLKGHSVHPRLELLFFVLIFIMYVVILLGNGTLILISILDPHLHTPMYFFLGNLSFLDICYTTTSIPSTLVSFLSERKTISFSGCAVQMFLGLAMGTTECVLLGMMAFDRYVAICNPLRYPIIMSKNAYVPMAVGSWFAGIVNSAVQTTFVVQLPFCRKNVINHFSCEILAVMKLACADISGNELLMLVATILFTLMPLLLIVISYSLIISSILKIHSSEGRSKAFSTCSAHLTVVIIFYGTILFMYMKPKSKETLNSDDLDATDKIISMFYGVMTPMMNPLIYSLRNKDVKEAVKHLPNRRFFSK
Procedure, shortened: as §1

[4] = system: T4, O13D1
T4 sequence (whole entry): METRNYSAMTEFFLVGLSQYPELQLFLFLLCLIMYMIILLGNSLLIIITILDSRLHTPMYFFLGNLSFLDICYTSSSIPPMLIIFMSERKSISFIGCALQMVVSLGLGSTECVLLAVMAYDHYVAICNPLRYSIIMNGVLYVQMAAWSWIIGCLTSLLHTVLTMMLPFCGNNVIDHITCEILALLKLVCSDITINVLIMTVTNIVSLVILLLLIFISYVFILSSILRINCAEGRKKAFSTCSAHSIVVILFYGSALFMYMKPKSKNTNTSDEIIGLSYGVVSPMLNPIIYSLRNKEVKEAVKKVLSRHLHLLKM
Procedure, shortened: as §1

[5] = system: T5, O13D1; remark: listed apart in the source
T5 sequence (whole entry): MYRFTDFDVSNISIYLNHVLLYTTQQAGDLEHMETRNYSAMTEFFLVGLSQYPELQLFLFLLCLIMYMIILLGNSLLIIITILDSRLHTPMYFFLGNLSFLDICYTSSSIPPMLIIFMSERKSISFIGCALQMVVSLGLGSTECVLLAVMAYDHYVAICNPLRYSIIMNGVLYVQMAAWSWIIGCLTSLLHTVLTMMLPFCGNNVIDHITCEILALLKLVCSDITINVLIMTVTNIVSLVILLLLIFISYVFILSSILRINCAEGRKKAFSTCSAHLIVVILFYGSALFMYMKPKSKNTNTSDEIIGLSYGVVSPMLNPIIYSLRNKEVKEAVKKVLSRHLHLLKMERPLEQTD
Procedure, shortened: as §1

[6] = system: T6, O13F1
T6 sequence (whole entry): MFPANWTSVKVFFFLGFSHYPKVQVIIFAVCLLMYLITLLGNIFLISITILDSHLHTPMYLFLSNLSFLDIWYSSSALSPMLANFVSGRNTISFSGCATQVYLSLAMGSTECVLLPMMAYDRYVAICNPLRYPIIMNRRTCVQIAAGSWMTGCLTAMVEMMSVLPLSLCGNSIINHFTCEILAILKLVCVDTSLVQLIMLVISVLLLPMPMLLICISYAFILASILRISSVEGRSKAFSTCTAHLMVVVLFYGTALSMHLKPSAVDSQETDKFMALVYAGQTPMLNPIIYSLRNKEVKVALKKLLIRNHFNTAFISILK
Procedure, shortened: as §1

[7] = system: T7, O13G1
T7 sequence (whole entry): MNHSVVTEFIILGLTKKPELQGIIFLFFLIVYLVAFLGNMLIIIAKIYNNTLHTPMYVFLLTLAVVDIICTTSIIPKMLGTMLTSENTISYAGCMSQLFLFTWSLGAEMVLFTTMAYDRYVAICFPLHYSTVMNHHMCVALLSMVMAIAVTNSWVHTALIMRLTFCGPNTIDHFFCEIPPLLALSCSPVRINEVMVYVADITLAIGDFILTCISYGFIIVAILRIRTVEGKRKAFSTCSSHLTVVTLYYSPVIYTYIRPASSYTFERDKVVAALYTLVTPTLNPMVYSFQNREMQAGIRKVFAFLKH
Procedure, shortened: as §1

[8] = system: T8, O13J1
T8 sequence (whole entry): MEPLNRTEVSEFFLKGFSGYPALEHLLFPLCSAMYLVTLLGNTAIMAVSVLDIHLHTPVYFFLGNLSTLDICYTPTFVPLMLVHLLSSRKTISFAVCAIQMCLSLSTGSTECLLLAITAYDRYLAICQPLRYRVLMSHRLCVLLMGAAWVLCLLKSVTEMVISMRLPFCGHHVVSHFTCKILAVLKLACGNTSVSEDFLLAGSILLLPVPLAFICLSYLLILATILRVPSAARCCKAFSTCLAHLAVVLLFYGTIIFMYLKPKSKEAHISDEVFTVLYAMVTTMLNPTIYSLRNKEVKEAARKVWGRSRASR
Procedure, shortened: as §1

[9] = system: T9, O14A2
T9 sequence (whole entry): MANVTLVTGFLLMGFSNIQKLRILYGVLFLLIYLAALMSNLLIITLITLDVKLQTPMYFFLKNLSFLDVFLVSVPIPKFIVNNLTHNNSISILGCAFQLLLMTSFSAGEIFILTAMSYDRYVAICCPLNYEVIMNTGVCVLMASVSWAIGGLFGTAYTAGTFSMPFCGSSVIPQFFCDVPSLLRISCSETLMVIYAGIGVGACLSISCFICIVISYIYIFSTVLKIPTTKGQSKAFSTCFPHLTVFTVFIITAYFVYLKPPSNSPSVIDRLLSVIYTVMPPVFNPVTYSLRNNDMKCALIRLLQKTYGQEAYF
Procedure, shortened: as §1

[10] = system: T10, O14AG
T10 sequence (whole entry): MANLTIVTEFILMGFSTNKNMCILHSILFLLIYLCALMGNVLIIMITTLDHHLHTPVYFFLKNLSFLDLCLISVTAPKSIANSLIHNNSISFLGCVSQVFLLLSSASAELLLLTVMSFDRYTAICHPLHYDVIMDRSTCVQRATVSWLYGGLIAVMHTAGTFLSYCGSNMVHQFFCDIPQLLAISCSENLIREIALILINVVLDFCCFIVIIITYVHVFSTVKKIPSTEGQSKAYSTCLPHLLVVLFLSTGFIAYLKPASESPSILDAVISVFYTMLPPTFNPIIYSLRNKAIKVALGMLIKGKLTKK
Procedure, shortened: as §1

[11] = system: T11, O14CZ
T11 sequence (whole entry): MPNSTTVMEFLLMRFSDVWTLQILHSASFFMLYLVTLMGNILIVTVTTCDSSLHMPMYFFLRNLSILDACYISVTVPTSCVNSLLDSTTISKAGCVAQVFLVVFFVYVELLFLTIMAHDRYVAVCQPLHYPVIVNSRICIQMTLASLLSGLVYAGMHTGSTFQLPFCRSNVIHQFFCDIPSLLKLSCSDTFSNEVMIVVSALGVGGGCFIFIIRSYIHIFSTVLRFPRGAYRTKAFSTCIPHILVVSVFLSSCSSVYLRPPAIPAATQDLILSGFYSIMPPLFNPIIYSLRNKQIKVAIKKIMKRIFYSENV
Procedure, shortened: as §1

[12] = system: T12, O14I1
T12 sequence (whole entry): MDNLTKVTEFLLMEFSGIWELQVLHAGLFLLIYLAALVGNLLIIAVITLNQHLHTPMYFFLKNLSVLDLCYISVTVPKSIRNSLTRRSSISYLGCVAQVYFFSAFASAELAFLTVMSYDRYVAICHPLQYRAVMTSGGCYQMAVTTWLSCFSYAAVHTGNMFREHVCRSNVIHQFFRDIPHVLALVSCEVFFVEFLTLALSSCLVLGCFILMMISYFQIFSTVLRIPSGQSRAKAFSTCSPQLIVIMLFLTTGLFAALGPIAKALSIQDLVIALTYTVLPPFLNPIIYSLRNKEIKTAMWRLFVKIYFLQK
Procedure, shortened: as §1

[13] = system: T13, O14J1
T13 sequence (whole entry): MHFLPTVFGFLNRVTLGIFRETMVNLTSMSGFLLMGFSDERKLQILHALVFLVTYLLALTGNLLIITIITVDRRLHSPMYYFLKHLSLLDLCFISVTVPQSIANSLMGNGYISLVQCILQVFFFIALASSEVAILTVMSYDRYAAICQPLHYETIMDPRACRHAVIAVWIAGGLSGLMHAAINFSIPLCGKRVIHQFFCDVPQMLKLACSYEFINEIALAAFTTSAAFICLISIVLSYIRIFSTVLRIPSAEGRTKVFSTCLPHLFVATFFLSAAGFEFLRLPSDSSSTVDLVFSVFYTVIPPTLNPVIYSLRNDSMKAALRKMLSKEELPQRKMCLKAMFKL
Procedure, shortened: as §1

[14] = system: T14, O14K1
T14 sequence (whole entry): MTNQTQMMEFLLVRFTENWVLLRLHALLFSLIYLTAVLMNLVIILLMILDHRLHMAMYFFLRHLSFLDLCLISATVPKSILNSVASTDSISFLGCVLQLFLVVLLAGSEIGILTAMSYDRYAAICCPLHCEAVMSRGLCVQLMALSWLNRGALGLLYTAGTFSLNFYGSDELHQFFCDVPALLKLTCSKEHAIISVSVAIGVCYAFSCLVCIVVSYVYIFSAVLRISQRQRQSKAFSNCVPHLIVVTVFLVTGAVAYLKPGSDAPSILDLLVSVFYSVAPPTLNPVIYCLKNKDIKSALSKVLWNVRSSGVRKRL
Procedure, shortened: as §1

Measured: odorant receptor agonist call

COc1cc(C)ccc1O
inactive: all assays above

CC(=O)c1ccccc1
active: [9] | [13]
inactive: all other assays above

CCCCCOC(C)=O
inactive: all assays above

CCCCCCCC=CC=O
active: [7] | [9] | [11] | [14]
inactive: all other assays above

2 consecutive entries from above, quoted:
COc1cc(C)ccc1O
inactive: all assays above

CC(=O)c1ccccc1
active: [9] | [13]
inactive: all other assays above

Later entries.

COc1ccccc1O
inactive: all assays above

CCCCCCCCCCC=O
inactive: all assays above

c1cnccn1
inactive: all assays above

CC1=NC(C)SC1C (configuration not stated)
inactive: all assays above

CCCCCCCC=O
inactive: all assays above

CC(=O)OC1CC2CCC1(C)C2(C)C (configuration not stated)
inactive: all assays above

CC12CCC(CC1)C(C)(C)O2
inactive: all assays above

CC(=O)OC(C)(C)C1CC=C(C)CC1 (configuration not stated)
inactive: all assays above

CC(C)=CCCC(C)=CC=O
inactive: all assays above
